Data as given in PMC7819943, “Rice protein-binding microarrays: a tool to detect cis-acting elements near promoter regions in rice”.
Some of the results follow.

By UniProt entry, the sequences of proteins in these tests, tags left out.
UniProt Q0JBA9, entry or part of it: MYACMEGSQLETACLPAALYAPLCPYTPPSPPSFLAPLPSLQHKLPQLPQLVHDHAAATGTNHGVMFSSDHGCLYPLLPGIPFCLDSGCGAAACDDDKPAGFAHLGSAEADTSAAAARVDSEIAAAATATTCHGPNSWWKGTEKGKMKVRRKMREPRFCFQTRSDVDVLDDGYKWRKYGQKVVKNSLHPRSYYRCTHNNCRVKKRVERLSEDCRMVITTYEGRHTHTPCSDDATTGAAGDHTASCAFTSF

target: OsWRKY34 (Oryza sativa, UniProt Q0JBA9 1-250); assay: protein-binding microarray (RPBM); PBS, 2% BSA, 51.3 ng/ul salmon testes DNA, 50 uM zinc acetate, 200 nM TF, 25 C, 1 h; high values mean tight binding; conditions: protein: recombinant; tags: N-terminal polyhistidine and DsRed monomer fusion (pET32a); label: CyDye5-dUTP incorporated in the synthesized complementary strand; 3' TTTTT single-stranded linker to array surface; dsDNA, one strand shown
Outline: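 For the binding signal, per-feature fluorescence intensity was read in arbitrary units on an Axon 4000B scanner. Before scanning, a 2% BSA-blocked custom Agilent array made double-stranded with Cy5-dUTP was washed after 1 h at 25 °C with 200 nM protein and 50 µM zinc acetate. The proteins were Ni–NTA-purified transcription factors with N-terminal polyhistidine and DsRed fusions, expressed in E. coli BL21-CodonPlus.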

Sequence	binding signal
AATCTGTTATACACACACAACTTTTCAGTCATATTATCTCCGGAGTCACCTAGTGCAG	8780 fluorescence intensity (a.u.)
TTGGTGCCAGACTGTTTTGCTTTCTAGATTTGGGGTTTGTCGGAGTCACCTAGTGCAG	8980 fluorescence intensity (a.u.)
CGCTGGGGTGGAGGTCTGTCTTCTGTTGAAGGACAAGGGGCGGAGTCACCTAGTGCAG	8850 fluorescence intensity (a.u.)
GGGCTTATGGTTACTGCTGCTGCCGCGGCTGCATCGAACACGGAGTCACCTAGTGCAG	9600 fluorescence intensity (a.u.)
AGATGATGTCATTGACCATACAAGTTGAAAATAGGAGCAACGGAGTCACCTAGTGCAG	63300 fluorescence intensity (a.u.)
GCATTTGTTTCCGTCTTTTTTACATCCCGTTTGATCGGAACGGAGTCACCTAGTGCAG	8620 fluorescence intensity (a.u.)
CTCGTTGTCGTGCTGCTTGTAATTCATCTAGTTTGTCTACCGGAGTCACCTAGTGCAG	10000 fluorescence intensity (a.u.)
GTCGCTTCTTCTTGGCCATTTCAGCTGTCATTTAGGAGTACGGAGTCACCTAGTGCAG	9130 fluorescence intensity (a.u.)
ATCATCGGTTATGTCTATCTCACAACTCAAAAAGTAACATCGGAGTCACCTAGTGCAG	8040 fluorescence intensity (a.u.)
AGCGGTTCTGCAACTGTTTGCTATCATTTTTGTGCCGAGACGGAGTCACCTAGTGCAG	8900 fluorescence intensity (a.u.)
TTCACCCGTTTAGGTCGCCGCCTCGCCGCTTCCCACTCCCCGGAGTCACCTAGTGCAG	8510 fluorescence intensity (a.u.)
GTTTATACGTTTATACTTTCTTCATCATTTATGCCCAACTCGGAGTCACCTAGTGCAG	11000 fluorescence intensity (a.u.)
CGGCTTGCATGGACGGATATTCGCCATATTCAGGTCGTTTCGGAGTCACCTAGTGCAG	9550 fluorescence intensity (a.u.)
TGTGATCAATGTACTGCCGCTTTTTTTATCTGCTGCATGACGGAGTCACCTAGTGCAG	14400 fluorescence intensity (a.u.)
TCAATGATGTGTTGTGTTTGCTCCATGGACCATGGTCCCTCGGAGTCACCTAGTGCAG	10600 fluorescence intensity (a.u.)
GTCCTTGTCTCTGCTCTGCCCCGCGCAATTAACTCTGCACCGGAGTCACCTAGTGCAG	11000 fluorescence intensity (a.u.)
TTCGGGCCACCGCCTTGCGATTTTCCCATAGCCCCAGAGTCGGAGTCACCTAGTGCAG	8250 fluorescence intensity (a.u.)
GCTTTTACTTAAACTGATTGGTGCTGATGGGTATGTTTGTCGGAGTCACCTAGTGCAG	8520 fluorescence intensity (a.u.)
TCATCCATCAGATATCCTCCACGTGTTGTCCTCGATCCCGCGGAGTCACCTAGTGCAG	9070 fluorescence intensity (a.u.)
AGGCGGAGAAAAGAGGGAGGGAGGGAGTGTGGACGTCTGACGGAGTCACCTAGTGCAG	9530 fluorescence intensity (a.u.)
TCCACCTCATCATTATTCAGTGCAATGCACATACATTTTACGGAGTCACCTAGTGCAG	8590 fluorescence intensity (a.u.)

Sequence	binding signal
TACTCCTGCATTGCTCTACAATTTTTGGGTCATGTAATTTCGGAGTCACCTAGTGCAG	9490 fluorescence intensity (a.u.)
GGTTATCTCAAATATTGTACTTGTGTGATTCTGATGAATACGGAGTCACCTAGTGCAG	9970 fluorescence intensity (a.u.)
CGATCCCCATCTCTCCGGATTCCTTCTTTCCTTCCTTATTCGGAGTCACCTAGTGCAG	11100 fluorescence intensity (a.u.)
TCACCCCAACTTCCGTTTCGAACTCAGTCTCAGCTCACATCGGAGTCACCTAGTGCAG	10800 fluorescence intensity (a.u.)
CCCTTGTCCATCCGCCAACGCCACGTCACCTCCTCCGCTACGGAGTCACCTAGTGCAG	9650 fluorescence intensity (a.u.)
CATGTATTGTGTTATTTTGGATTTTACATTGGACGTAACTCGGAGTCACCTAGTGCAG	9340 fluorescence intensity (a.u.)
AACACCGTTCTATCATCCACAGCCACTGCATCATTTCATTCGGAGTCACCTAGTGCAG	9420 fluorescence intensity (a.u.)
CGGTTCTTTGTTGATGCTTTATTTTTCATCCATAAGTTTACGGAGTCACCTAGTGCAG	11200 fluorescence intensity (a.u.)
CGCAATCCAGAGTGCCACACTACCCAGCTCTTCTTCTTCTCGGAGTCACCTAGTGCAG	10300 fluorescence intensity (a.u.)
ATCATGTACATCTCATAGTCAACAATATTCATCACAATCTCGGAGTCACCTAGTGCAG	9470 fluorescence intensity (a.u.)
CCGATTCCTATGTTTTTCCTATGTTACAATCAAATAATTTCGGAGTCACCTAGTGCAG	9310 fluorescence intensity (a.u.)
CTCCTACCTTTTCTTCTTCCTTTCAATTCCTCCTGCTCTTCGGAGTCACCTAGTGCAG	12700 fluorescence intensity (a.u.)
ATATCTCTTTCAAACTTTCAACTTTTTCATCACATCAAAACGGAGTCACCTAGTGCAG	9590 fluorescence intensity (a.u.)
GACTTTTTTAAACATATTTGACCGTTCGTTTTATTCAAAACGGAGTCACCTAGTGCAG	8190 fluorescence intensity (a.u.)
CTCTTCTCACCGCTTCACCTGTGCCAAAACCCTTGAGCTCCGGAGTCACCTAGTGCAG	9920 fluorescence intensity (a.u.)
TCACGAAGCCACATTGAACCTGCCTCGCCTCACGAAAACGCGGAGTCACCTAGTGCAG	9690 fluorescence intensity (a.u.)
GCACATGTTTGACCATTCATCTTATAAGAAAAAACTTTTGCGGAGTCACCTAGTGCAG	8090 fluorescence intensity (a.u.)
GCCTTTTCTTCTTTCTTTCATCTCTCGCCGAGCCGAGCCGCGGAGTCACCTAGTGCAG	10200 fluorescence intensity (a.u.)
TATATATATATATATATATATATATAATGGGCACCATCTACGGAGTCACCTAGTGCAG	8480 fluorescence intensity (a.u.)
ACTCTCTTCCTCACGACGCACCACGGGCTAGCCACTCCTACGGAGTCACCTAGTGCAG	8340 fluorescence intensity (a.u.)
CCCTGCATCCACTCCACAGTCCACCACACCACAAACGTATCGGAGTCACCTAGTGCAG	11100 fluorescence intensity (a.u.)

Pulled one by one from above:
Sequence	binding signal
GGTTATCTCAAATATTGTACTTGTGTGATTCTGATGAATACGGAGTCACCTAGTGCAG	9970 fluorescence intensity (a.u.)
CTCTTCTCACCGCTTCACCTGTGCCAAAACCCTTGAGCTCCGGAGTCACCTAGTGCAG	9920 fluorescence intensity (a.u.)
TATATATATATATATATATATATATAATGGGCACCATCTACGGAGTCACCTAGTGCAG	8480 fluorescence intensity (a.u.)
CATGTATTGTGTTATTTTGGATTTTACATTGGACGTAACTCGGAGTCACCTAGTGCAG	9340 fluorescence intensity (a.u.)
CGGTTCTTTGTTGATGCTTTATTTTTCATCCATAAGTTTACGGAGTCACCTAGTGCAG	11200 fluorescence intensity (a.u.)
ATCATGTACATCTCATAGTCAACAATATTCATCACAATCTCGGAGTCACCTAGTGCAG	9470 fluorescence intensity (a.u.)

Following part

Sequence	binding signal
CGGAGAAGTTGCCTTTTGCTGTGTGCGCTGTGTTGGTGGGCGGAGTCACCTAGTGCAG	8710 fluorescence intensity (a.u.)
CCAGCACCATCGCTTCCAACCTCCGCATATATTAACCTCCCGGAGTCACCTAGTGCAG	11000 fluorescence intensity (a.u.)
TCTACTCATCATTGGTGGAGACAGTCTGACCTTTATCACGCGGAGTCACCTAGTGCAG	8300 fluorescence intensity (a.u.)
GGTGTTAGCTTTAGGTTTTGGTGTTTGGTTGGGTAATTTTCGGAGTCACCTAGTGCAG	17300 fluorescence intensity (a.u.)
TCATTGCCACCTCTGTCATGTGTAAATGATGCTTCTATTTCGGAGTCACCTAGTGCAG	10400 fluorescence intensity (a.u.)
GCTATAAATTTGTAGCCCGTTTTCCTTCTCTCTTCTTCTTCGGAGTCACCTAGTGCAG	10600 fluorescence intensity (a.u.)
GAGCCCACGTCATCCCATCCCCTCGCGAGTCGCCTTCGAGCGGAGTCACCTAGTGCAG	8350 fluorescence intensity (a.u.)
AGCTTCTTTTTCACCTCTATGATCTTCTCTCGCTCTGAAACGGAGTCACCTAGTGCAG	13100 fluorescence intensity (a.u.)
TTTCACCATGGTCCGATGTTTCTGCCACTTTCCGCATGCTCGGAGTCACCTAGTGCAG	15600 fluorescence intensity (a.u.)
CCTCTCCTCTCCATATGTTGAGTTGTTGACCTCCGGCGGCCGGAGTCACCTAGTGCAG	8300 fluorescence intensity (a.u.)
CGGCCGCAAGATTGGTCCCCTTTTCCTCCGGGCCTACCACCGGAGTCACCTAGTGCAG	8290 fluorescence intensity (a.u.)
CGCAACATCCGCGTCTGCCTCACTCCTGGCCAGCGCCTAGCGGAGTCACCTAGTGCAG	9420 fluorescence intensity (a.u.)
TTTTTTTTCATCCATATTTAATGCTCTATGCTTGTGTCCACGGAGTCACCTAGTGCAG	9650 fluorescence intensity (a.u.)
ATTTTTATAGTATTACATCTACGTGTAAAGTTTCATCTTTCGGAGTCACCTAGTGCAG	8260 fluorescence intensity (a.u.)
GGTTTAGGCGTTTCTTGGACGAACACCTCGAGCTCTTCTCCGGAGTCACCTAGTGCAG	9520 fluorescence intensity (a.u.)
GGTTCCTGGGCCAACCGTGCCCCGTCCACGGCCCATTTTTCGGAGTCACCTAGTGCAG	9650 fluorescence intensity (a.u.)
GAGGGATAAAATAGTTAGTGTTATATAATTACTTCCTACTCGGAGTCACCTAGTGCAG	8660 fluorescence intensity (a.u.)
AAGGCAACTTTTGGTCTCTGTCTGATCATTTTTTTTTCCCCGGAGTCACCTAGTGCAG	9020 fluorescence intensity (a.u.)
TCGCAAACACATTTTCTCCTCCATCACAGTCGGCGTTTTGCGGAGTCACCTAGTGCAG	10700 fluorescence intensity (a.u.)
TACGCCCTAAGTTACATTCTCTACAATATTGTTCTCTAAACGGAGTCACCTAGTGCAG	8470 fluorescence intensity (a.u.)
ACACACCACTTATCCGCTGCAGCAACCTCGCAATCCCCTCCGGAGTCACCTAGTGCAG	9840 fluorescence intensity (a.u.)

Sequence	binding signal
GTGCTGCCTTTGATTTTTTGCTGTTACCATGGCGTGCATCCGGAGTCACCTAGTGCAG	8040 fluorescence intensity (a.u.)
AATCGTCTCCGGGCCCTTCTTTTTTCCCGGGAAGCGTCAGCGGAGTCACCTAGTGCAG	10100 fluorescence intensity (a.u.)
TCCATCCCATTCCCGCCATCTCTGCATCTTCTTCTTCTTCCGGAGTCACCTAGTGCAG	9910 fluorescence intensity (a.u.)
GCTTACACGTCTTCTTCGCCGCCGCCTCGCTTCTCTACCTCGGAGTCACCTAGTGCAG	10900 fluorescence intensity (a.u.)
CATTTCCACTTTATTTCATTTCTGCAATATGCAGCATACACGGAGTCACCTAGTGCAG	8370 fluorescence intensity (a.u.)
TTCATTATTTGTTTCTGCCTGGGCTCATCGATATGATCTCCGGAGTCACCTAGTGCAG	9410 fluorescence intensity (a.u.)
GACTTGGCTACACACGACTACTACCTATTTCTATTTCGATCGGAGTCACCTAGTGCAG	8240 fluorescence intensity (a.u.)
TCAATTGTGCAAACCGTTCTCAATTTTCACCTGCAATTGTCGGAGTCACCTAGTGCAG	9490 fluorescence intensity (a.u.)
ACTAGTACTCCACCATTTTTATTTTTTTATTCTTTTACTTCGGAGTCACCTAGTGCAG	9950 fluorescence intensity (a.u.)
GTCAAGTGTCTGGCTTTTTCTTATCTATCAATAACACTTTCGGAGTCACCTAGTGCAG	8390 fluorescence intensity (a.u.)
ATTAATTTTGACGCTTCATCCCCTCTGTCCCCAGCACCAGCGGAGTCACCTAGTGCAG	8630 fluorescence intensity (a.u.)
TACCTCCCACTGCCGTGAGCCGCCGCCATTGTTCCCTTAGCGGAGTCACCTAGTGCAG	8330 fluorescence intensity (a.u.)
TCAACCTCACGCTCAAGCTGCATCTCTCTCTCTCTCTCTCCGGAGTCACCTAGTGCAG	9880 fluorescence intensity (a.u.)
CACAAGTATAAATCCCACTCTCTGAAGCGGTGTGTGTTTTCGGAGTCACCTAGTGCAG	10000 fluorescence intensity (a.u.)
GGCATCAAACTATAGTTATCAAGTTTTTAACCATTGTTTTCGGAGTCACCTAGTGCAG	8640 fluorescence intensity (a.u.)
ATTTGCTACGTCGTCCGTGTTTGAGTCGGTTTTGAAGTTTCGGAGTCACCTAGTGCAG	8960 fluorescence intensity (a.u.)
GGCCGTTGGTCCCGCTGCCTCGTCTTCGTTTACCTTCGCCCGGAGTCACCTAGTGCAG	9950 fluorescence intensity (a.u.)
CTTCTCGCGATTTCTCTTCTAACTGTGCAATTAGTTTTTTCGGAGTCACCTAGTGCAG	8480 fluorescence intensity (a.u.)
CTTGGATCAGCCACCGGGCATCGATCAGTTGATCATCAAACGGAGTCACCTAGTGCAG	9570 fluorescence intensity (a.u.)
TCGTCATTGTCGCCATGTCCTTCCATCTACAAGCCCACGTCGGAGTCACCTAGTGCAG	11400 fluorescence intensity (a.u.)
ATCCATATCACCGACTTGATCACCAGCCACCAGGAAAACCCGGAGTCACCTAGTGCAG	10800 fluorescence intensity (a.u.)
